Article PMC5958119
Residue numbers refer to the chain shown, from its start. No constants are given. Whether binding was seen depends on the method and setting. Binding seen in cells or lysates may run through a third protein. Some results given as binding are weak or reduced against the parent protein; the word gives no strength.

Protein sequences, listed by entry. Tags and fused reporters are not part of them.
UniProt O88382: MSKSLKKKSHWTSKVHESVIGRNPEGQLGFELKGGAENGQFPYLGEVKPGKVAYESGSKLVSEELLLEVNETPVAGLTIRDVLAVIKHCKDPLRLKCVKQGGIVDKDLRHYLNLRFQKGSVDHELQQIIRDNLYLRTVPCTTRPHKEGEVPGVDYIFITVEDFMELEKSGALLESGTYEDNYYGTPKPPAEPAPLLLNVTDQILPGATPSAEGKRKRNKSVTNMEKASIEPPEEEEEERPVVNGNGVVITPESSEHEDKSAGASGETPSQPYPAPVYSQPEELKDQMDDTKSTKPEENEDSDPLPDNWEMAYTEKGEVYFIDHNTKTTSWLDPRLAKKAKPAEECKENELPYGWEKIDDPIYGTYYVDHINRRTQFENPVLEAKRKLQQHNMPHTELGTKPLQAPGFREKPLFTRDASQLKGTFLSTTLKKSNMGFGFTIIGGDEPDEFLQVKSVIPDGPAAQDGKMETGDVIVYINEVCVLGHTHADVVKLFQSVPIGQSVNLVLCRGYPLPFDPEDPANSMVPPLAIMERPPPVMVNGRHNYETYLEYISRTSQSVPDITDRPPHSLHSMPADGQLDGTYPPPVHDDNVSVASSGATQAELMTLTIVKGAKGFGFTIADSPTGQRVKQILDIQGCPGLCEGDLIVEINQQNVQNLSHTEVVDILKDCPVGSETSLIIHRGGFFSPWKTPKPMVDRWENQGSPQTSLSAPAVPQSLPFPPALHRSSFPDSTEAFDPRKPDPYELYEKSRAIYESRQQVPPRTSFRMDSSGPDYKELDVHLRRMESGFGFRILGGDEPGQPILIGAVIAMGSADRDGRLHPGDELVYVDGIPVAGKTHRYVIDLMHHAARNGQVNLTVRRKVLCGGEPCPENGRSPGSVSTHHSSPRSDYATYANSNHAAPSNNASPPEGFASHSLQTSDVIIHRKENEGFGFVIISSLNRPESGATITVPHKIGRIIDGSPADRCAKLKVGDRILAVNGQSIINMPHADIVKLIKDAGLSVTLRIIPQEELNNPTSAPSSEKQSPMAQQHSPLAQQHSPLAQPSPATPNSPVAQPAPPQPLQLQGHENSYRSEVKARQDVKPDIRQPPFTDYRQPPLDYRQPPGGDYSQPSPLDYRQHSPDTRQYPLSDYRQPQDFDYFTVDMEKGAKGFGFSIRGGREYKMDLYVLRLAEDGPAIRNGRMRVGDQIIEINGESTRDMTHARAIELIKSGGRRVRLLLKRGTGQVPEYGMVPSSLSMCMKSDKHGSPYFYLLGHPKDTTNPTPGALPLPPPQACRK

Columns and labels:
[1] = target: T1, TNS2 mutant p.Arg292Gln (not stated (human or mouse cDNA cloned)) (UniProt Q63HR2); experiment: co-IP; co-overexpression in HEK293T cells; lysates pre-cleared with protein G or A beads, antibody overnight at 4 °C in lysis buffer with protease inhibitors, protein G or A beads (GFP-Trap agarose for GFP fusions), washed four times, immunoblot; confirmatory co-IPs for several pairs; DLC1 with CAV1 also reciprocal in cells pre- and post-treated with 100 uM dexamethasone, results not altered
T1 sequence: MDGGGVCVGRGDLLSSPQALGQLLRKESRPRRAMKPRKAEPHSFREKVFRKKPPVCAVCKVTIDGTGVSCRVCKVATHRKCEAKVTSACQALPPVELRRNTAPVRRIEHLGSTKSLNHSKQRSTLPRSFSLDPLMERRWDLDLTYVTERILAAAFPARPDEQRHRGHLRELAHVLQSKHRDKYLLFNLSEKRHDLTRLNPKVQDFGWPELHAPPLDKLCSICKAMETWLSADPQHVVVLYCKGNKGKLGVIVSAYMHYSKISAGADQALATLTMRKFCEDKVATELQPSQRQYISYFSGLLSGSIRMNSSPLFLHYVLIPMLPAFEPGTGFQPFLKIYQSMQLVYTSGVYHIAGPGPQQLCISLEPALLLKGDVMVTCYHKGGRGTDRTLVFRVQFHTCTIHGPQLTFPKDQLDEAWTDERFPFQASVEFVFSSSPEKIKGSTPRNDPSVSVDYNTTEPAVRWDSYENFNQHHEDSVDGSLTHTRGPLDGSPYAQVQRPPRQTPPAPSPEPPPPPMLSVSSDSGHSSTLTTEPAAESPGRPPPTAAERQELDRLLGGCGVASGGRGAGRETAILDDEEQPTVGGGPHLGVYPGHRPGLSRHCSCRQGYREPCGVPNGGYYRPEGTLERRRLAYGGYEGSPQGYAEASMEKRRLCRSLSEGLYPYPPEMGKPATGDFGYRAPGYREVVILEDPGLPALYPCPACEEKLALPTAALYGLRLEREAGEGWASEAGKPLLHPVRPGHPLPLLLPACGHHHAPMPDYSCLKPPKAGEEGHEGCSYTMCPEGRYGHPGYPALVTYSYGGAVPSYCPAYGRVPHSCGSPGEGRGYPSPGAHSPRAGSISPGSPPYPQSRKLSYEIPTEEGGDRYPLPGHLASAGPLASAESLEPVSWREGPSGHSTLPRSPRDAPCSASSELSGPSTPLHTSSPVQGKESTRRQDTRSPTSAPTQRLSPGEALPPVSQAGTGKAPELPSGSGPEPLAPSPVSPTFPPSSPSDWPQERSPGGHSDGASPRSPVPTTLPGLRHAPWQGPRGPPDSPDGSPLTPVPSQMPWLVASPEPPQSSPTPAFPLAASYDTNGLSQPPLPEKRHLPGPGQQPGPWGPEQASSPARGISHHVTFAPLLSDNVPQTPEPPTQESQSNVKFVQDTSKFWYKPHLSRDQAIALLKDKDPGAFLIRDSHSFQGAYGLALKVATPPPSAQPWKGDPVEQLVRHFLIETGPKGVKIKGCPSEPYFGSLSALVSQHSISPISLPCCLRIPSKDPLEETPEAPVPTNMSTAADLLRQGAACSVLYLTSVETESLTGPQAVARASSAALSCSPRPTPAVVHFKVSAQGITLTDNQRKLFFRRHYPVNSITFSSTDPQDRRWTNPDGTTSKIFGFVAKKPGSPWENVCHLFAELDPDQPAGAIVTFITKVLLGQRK

[2] = target: T2, TNS2 (tensin-2) wild type (not stated (human or mouse cDNA cloned)) (UniProt Q63HR2); experiment: as above
T2 sequence: T1 sequence with Q292R

- binding [1]: binds
- binding [2]: binds
Substance: MAGI2 wild type (rat Magi2, S-SCAM, full-length cDNA) (from UniProt O88382 1-1277)
